For assay [1], the target named is T1, Mst77F-V5 (male-specific transcript 77F, recombinant full-length with a C-terminal V5 tag) (Drosophila melanogaster) (UniProt P16909).
T1 sequence: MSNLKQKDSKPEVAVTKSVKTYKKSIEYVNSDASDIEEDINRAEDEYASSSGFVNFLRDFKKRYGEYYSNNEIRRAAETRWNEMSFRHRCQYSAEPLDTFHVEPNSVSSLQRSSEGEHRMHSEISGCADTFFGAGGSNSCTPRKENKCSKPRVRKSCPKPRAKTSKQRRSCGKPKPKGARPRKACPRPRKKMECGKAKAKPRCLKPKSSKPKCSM
The assay is described as follows: SEC; size-exclusion chromatography of the APL-Mst77F-V5 complex in the absence of acceptor DNA; fractions analysed by western blot (Fig. S3B); both purified. (In general: In gel filtration, larger molecules generally elute earlier.)

In assay [2] the target is T1, Mst77F-V5 (male-specific transcript 77F, recombinant full-length with a C-terminal V5 tag) (Drosophila melanogaster). The assay is described as follows: co-sedimentation; glycerol gradient sedimentation of recombinant proteins; substoichiometric (limiting) APL with Mst77F and/or purified core histones (Fig. S3C-E); both purified.
Assay [3] shares this target. The assay is described as follows: co-IP; co-immunoprecipitation of recombinant proteins with free Mst77F-V5 in solution (Fig. S1C); details in Supplementary Experimental Procedures; both purified.

These are yes or no findings as the source states them, for the method shown. A result given as binding can be weak or reduced; the word gives no strength. Sequences can lack the tags named with a protein. For some of these results: In cells and extracts the contact can be indirect.

“FLAG-APL (recombinant APOLLO) (Drosophila melanogaster)”: the binding result in assay [1] and in assay [2] was “binds” each time. For “FLAG-ARTS (recombinant ARTEMIS) (Drosophila melanogaster)”, in assay [3], the binding entry is on record as “binds”. Still for that read-out and setting: under “recombinant TAP/p32 (HIV-1 Tat-associated protein/p32) (Drosophila)” stands “binds”.

The values are drawn from publication PMC10520872.
